{"source": "PubChem BioAssay AID504764 (Drosophila RNAi Screening Center, 2011)", "purpose": "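Genome-wide screen for regulators of Notch-driven gene expression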 (primary screen)", "cell system": "Drosophila Kc167 cells", "reagents": "long dsRNA against Drosophila genes", "timing": "about 5 days (4 days dsRNA, then 24 h after transfection)", "conditions": "transfection of constitutively active membrane-tethered Notch lacking the extracellular domain, read 24 h later", "read-out": "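Firefly luciferase from an E(spl)m3 reporter with active Notch, plus control-promoter and uninduced reporter wells for normalisation; unnormalised counts, duplicate wells a and b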", "scale": "induced reporter light, run 1, well a and induced reporter light, run 1, well b: higher = more light from the Notch target reporter with active Notch; control promoter light, run 1, well a and control promoter light, run 1, well b: higher = more light from the viral control promoter (cell number, transfection, viability); uninduced reporter light, run 1, well a: higher = more light from the Notch target reporter without active Notch", "hit rule": "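Hit if the duplicate-averaged log2 ratio of induced to control-promoter light gives a plate-wise z beyond ±2, or induced to uninduced beyond ±1.8; weak-control or discordant-duplicate wells dropped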", "calls": "active = modifier hit (raised or lowered Notch signal); inactive = not a hit", "note": "The screen tested about 22,000 reagents; below is a random part of those with a known target gene and a result. Over the whole deposit, 403 (1.9%) were called active. 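Unnormalised raw counts per well; ratio z-scores behind the hit calls and whether each hit raises or lowers signal are not deposited.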 The record does not give: the amount of reagent."}
{"gene knocked down": "RabX1", "amplicon": "DRSC04678", "induced reporter light, run 1, well a": 1.54e5, "induced reporter light, run 1, well b": 1.59e5, "control promoter light, run 1, well a": 1.77e5, "control promoter light, run 1, well b": 1.74e5, "uninduced reporter light, run 1, well a": 12145, "outcome": "inactive"}
{"gene knocked down": "CG5347", "amplicon": "DRSC19942", "induced reporter light, run 1, well a": 92165, "induced reporter light, run 1, well b": 78555, "control promoter light, run 1, well a": 1.10e5, "control promoter light, run 1, well b": 1.04e5, "uninduced reporter light, run 1, well a": 13615, "outcome": "inactive"}
{"gene knocked down": "JMJD6 (Jumonji domain containing 6)", "amplicon": "DRSC15787", "induced reporter light, run 1, well a": 1.83e5, "induced reporter light, run 1, well b": 2.50e5, "control promoter light, run 1, well a": 2.49e5, "control promoter light, run 1, well b": 2.58e5, "uninduced reporter light, run 1, well a": 14992, "outcome": "inactive"}
{"gene knocked down": "CG31525", "amplicon": "DRSC12004", "induced reporter light, run 1, well a": 2.41e5, "induced reporter light, run 1, well b": 2.70e5, "control promoter light, run 1, well a": 3.31e5, "control promoter light, run 1, well b": 2.78e5, "uninduced reporter light, run 1, well a": 21350, "outcome": "inactive"}
{"gene knocked down": "mRpL11 (mitochondrial ribosomal protein L11)", "amplicon": "DRSC15482", "induced reporter light, run 1, well a": 1.94e5, "induced reporter light, run 1, well b": 2.00e5, "control promoter light, run 1, well a": 2.01e5, "control promoter light, run 1, well b": 2.07e5, "uninduced reporter light, run 1, well a": 16270, "outcome": "inactive"}
{"gene knocked down": "rad50", "amplicon": "DRSC04523", "induced reporter light, run 1, well a": 2.21e5, "induced reporter light, run 1, well b": 2.53e5, "control promoter light, run 1, well a": 1.81e5, "control promoter light, run 1, well b": 1.97e5, "uninduced reporter light, run 1, well a": 16138, "outcome": "inactive"}
{"gene knocked down": "CG8745", "amplicon": "DRSC11033", "induced reporter light, run 1, well a": 1.12e5, "induced reporter light, run 1, well b": 1.24e5, "control promoter light, run 1, well a": 85480, "control promoter light, run 1, well b": 1.25e5, "uninduced reporter light, run 1, well a": 10250, "outcome": "inactive"}
{"gene knocked down": "CG8745", "amplicon": "DRSC11034", "induced reporter light, run 1, well a": 2.20e5, "induced reporter light, run 1, well b": 1.70e5, "control promoter light, run 1, well a": 2.79e5, "control promoter light, run 1, well b": 3.28e5, "uninduced reporter light, run 1, well a": 11965, "outcome": "inactive"}
{"gene knocked down": "Vha16-5 (Vacuolar H[+] ATPase 16kD subunit 5)", "amplicon": "DRSC02986", "induced reporter light, run 1, well a": 1.37e5, "induced reporter light, run 1, well b": 1.36e5, "control promoter light, run 1, well a": 1.11e5, "control promoter light, run 1, well b": 1.29e5, "uninduced reporter light, run 1, well a": 19180, "outcome": "inactive"}
{"gene knocked down": "CG16789", "amplicon": "DRSC15155", "induced reporter light, run 1, well a": 1.05e5, "induced reporter light, run 1, well b": 94840, "control promoter light, run 1, well a": 86635, "control promoter light, run 1, well b": 58900, "uninduced reporter light, run 1, well a": 5635, "outcome": "inactive"}
{"gene knocked down": "CG4301", "amplicon": "DRSC19886", "induced reporter light, run 1, well a": 49875, "induced reporter light, run 1, well b": 36815, "control promoter light, run 1, well a": 47485, "control promoter light, run 1, well b": 47450, "uninduced reporter light, run 1, well a": 3670, "outcome": "inactive"}
{"gene knocked down": "sit (stuck in traffic)", "amplicon": "DRSC15760", "induced reporter light, run 1, well a": 2.09e5, "induced reporter light, run 1, well b": 1.72e5, "control promoter light, run 1, well a": 2.01e5, "control promoter light, run 1, well b": 2.11e5, "uninduced reporter light, run 1, well a": 15028, "outcome": "inactive"}
{"gene knocked down": "CG31380", "amplicon": "DRSC15688", "induced reporter light, run 1, well a": 1.59e5, "induced reporter light, run 1, well b": 1.68e5, "control promoter light, run 1, well a": 1.66e5, "control promoter light, run 1, well b": 2.02e5, "uninduced reporter light, run 1, well a": 13805, "outcome": "inactive"}
{"gene knocked down": "Gr2a (Gustatory receptor 2a)", "amplicon": "DRSC18603", "induced reporter light, run 1, well a": 1.57e5, "induced reporter light, run 1, well b": 1.69e5, "control promoter light, run 1, well a": 2.46e5, "control promoter light, run 1, well b": 2.84e5, "uninduced reporter light, run 1, well a": 10732, "outcome": "inactive"}
{"gene knocked down": "dgt4 (dim gamma-tubulin 4)", "amplicon": "DRSC18659", "induced reporter light, run 1, well a": 1.60e5, "induced reporter light, run 1, well b": 1.53e5, "control promoter light, run 1, well a": 2.48e5, "control promoter light, run 1, well b": 2.35e5, "uninduced reporter light, run 1, well a": 12320, "outcome": "inactive"}
{"gene knocked down": "Srp72 (Signal recognition particle 72)", "amplicon": "DRSC15800", "induced reporter light, run 1, well a": 71120, "induced reporter light, run 1, well b": 79690, "control promoter light, run 1, well a": 1.28e5, "control promoter light, run 1, well b": 1.23e5, "uninduced reporter light, run 1, well a": 6170, "outcome": "inactive"}
{"gene knocked down": "CG34290", "amplicon": "DRSC13660", "induced reporter light, run 1, well a": 2.03e5, "induced reporter light, run 1, well b": 1.88e5, "control promoter light, run 1, well a": 2.01e5, "control promoter light, run 1, well b": 1.94e5, "uninduced reporter light, run 1, well a": 16935, "outcome": "inactive"}
{"gene knocked down": "Fatp3 (Fatty acid transport protein 3)", "amplicon": "DRSC04366", "induced reporter light, run 1, well a": 1.76e5, "induced reporter light, run 1, well b": 1.65e5, "control promoter light, run 1, well a": 1.49e5, "control promoter light, run 1, well b": 1.45e5, "uninduced reporter light, run 1, well a": 12335, "outcome": "inactive"}
